Patent US20240158448A1, “MULTIVALENT NANO-'SELF' PEPTIDES AND USES THEREOF” (THE TRUSTEES OF THE UNIVERSITY OF PENNSYLVANIA, priority 2021, published 2024)
Some of these results come from one statement about several compounds together. Some ranges recur; such a range may be that of the whole group of compounds.

Test system: human THP-1 macrophages
Test: In vitro phagocytosis assay: opsonized human RBCs engulfed by peptide-treated THP-1 macrophages
Type: cell-based
Details: saturating peptide
Method: In vitro phagocytosis assay. Fresh human RBCs were washed twice with 50 mM EDTA (Thermo Fischer) in PBS (Gibco) then twice with 5% FBS in PBS. RBCs were opsonized with 20 μg/mL rabbit anti-human RBC antibody (Rockland) in 5% FBS for 1 hour at RT with shaking. For CD47 blocked RBCs, 5 μg/mL of mouse anti-human CD47 (B6H12; BD Biosciences) were added. Thereafter, RBCs were washed with PBS three times and stained with PKH26 dye (1:800 dilution in PBS; Sigma) for 1 hour at RT with shaking in the dark. RBCs were washed and resuspended in PBS.
THP-1 monocytes were PMA differentiated in RPMI for 48 hours. Macrophages were then washed with RPMI media three times. For SIRPα blocked THP-1 macrophages, 20 nM, 1 μM or 50 μM of the nano—Self peptides were incubated with the THP-1 macrophages for 1 hour at 37 ° C., 5% CO2 and 95% humidity. Those THP-Is were then washed with RPMI three times.
CO2 and 95% humidity. Macrophages were then washed with RPMI three times. Adherent and uninternalized RBCs were lysed with water for 30 seconds followed by immediate replacement with RPMI media. In order to distinguish remaining adherent RBCs from internalized RBCs, opsonized RBCs were stained with AlexaFluor 647 donkey anti-rabbit (binds to rabbit polyclonal opsonin on RBC; Invitrogen) IgG (1:1000) while unopsonized, CD47 blocked RBCs were stained with AlexaFluor 647 donkey anti-mouse (binds to mouse monoclonal anti-CD47 on RBCs; Invitrogen) IgG (1:1000) for 30 minutes. After washing, macrophages were fixed with 4% formaldehyde for 15 minutes at RT, washed with PBS, stained with 1 μg/mL Hoechst 33342, and then washed with PBS again. Fluorescence imaging was performed as described elsewhere herein and quantification was done using ImageJ. At least 200 cells were analyzed and experiments were repeated at least three times.

Row | Substance | additional phagocytosis of opsonized RBCs relative to anti-CD47 treatment
1 | (VTELFREG-PEG5)2-K (VTELFREGKGERFLETV; bivalent, PEG5 linkers, lysine core; nS-FF; (8)..(9) 5x PEG linker between residues; (9)..(10) 5x PEG linker between residues) [bivalent nS-F linked through PEG5 linkers to a C-terminal Lys] | 10-20%
2 | (VTELVREG-PEG5)2-K (VTELVREGKGERVLETV; bivalent, PEG5 linkers, lysine core; nS-VV; (8)..(9) 5x PEG linker between residues; (9)..(10) 5x PEG linker between residues) [bivalent nS-V] | 10-20%
3 | VTELFREG (nS-F) [nano-Self peptide with Thr to Phe mutation] | 10-20%
